In this test the target is FGFR2 (endogenous) (human (endogenous in DU145 and PC3)) (UniProt P21802). Put plainly: co-IP; endogenous proteins; DU145 and PC3 cells, normoxia or hypoxia 8 h; lysates precipitated with IgG or anti-FGFR2, protein A/G beads; immunoblot.

Sequences of proteins named here, by UniProt entry; tags and fusion partners are left off. A change or cut given only in a name is not applied to a line headed by its entry. A line that says so, or that is headed by a name, gives the form on record, which may keep a tag or linker.
FGFR2 (endogenous) (human (endogenous in DU145 and PC3)) (P21802, form named): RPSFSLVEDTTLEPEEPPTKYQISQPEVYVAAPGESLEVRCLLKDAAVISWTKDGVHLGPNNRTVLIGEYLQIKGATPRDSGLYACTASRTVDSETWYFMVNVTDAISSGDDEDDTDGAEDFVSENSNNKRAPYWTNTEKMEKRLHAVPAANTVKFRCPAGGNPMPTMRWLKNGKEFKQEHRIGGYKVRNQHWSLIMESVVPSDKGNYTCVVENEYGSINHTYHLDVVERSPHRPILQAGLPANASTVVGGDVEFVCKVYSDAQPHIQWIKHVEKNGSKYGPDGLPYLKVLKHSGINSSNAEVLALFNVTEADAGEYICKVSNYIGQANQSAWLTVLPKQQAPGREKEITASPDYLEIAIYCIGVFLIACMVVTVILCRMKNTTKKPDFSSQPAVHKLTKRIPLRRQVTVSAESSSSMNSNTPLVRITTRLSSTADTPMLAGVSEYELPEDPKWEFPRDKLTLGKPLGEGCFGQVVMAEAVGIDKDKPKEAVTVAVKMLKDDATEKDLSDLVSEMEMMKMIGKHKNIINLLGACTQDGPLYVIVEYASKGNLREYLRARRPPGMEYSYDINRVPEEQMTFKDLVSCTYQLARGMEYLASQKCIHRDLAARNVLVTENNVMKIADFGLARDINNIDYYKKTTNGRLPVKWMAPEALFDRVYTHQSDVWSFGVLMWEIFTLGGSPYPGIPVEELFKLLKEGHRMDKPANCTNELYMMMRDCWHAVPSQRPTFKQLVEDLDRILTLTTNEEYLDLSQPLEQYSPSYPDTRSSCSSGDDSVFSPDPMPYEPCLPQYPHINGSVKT
UniProt Q99814: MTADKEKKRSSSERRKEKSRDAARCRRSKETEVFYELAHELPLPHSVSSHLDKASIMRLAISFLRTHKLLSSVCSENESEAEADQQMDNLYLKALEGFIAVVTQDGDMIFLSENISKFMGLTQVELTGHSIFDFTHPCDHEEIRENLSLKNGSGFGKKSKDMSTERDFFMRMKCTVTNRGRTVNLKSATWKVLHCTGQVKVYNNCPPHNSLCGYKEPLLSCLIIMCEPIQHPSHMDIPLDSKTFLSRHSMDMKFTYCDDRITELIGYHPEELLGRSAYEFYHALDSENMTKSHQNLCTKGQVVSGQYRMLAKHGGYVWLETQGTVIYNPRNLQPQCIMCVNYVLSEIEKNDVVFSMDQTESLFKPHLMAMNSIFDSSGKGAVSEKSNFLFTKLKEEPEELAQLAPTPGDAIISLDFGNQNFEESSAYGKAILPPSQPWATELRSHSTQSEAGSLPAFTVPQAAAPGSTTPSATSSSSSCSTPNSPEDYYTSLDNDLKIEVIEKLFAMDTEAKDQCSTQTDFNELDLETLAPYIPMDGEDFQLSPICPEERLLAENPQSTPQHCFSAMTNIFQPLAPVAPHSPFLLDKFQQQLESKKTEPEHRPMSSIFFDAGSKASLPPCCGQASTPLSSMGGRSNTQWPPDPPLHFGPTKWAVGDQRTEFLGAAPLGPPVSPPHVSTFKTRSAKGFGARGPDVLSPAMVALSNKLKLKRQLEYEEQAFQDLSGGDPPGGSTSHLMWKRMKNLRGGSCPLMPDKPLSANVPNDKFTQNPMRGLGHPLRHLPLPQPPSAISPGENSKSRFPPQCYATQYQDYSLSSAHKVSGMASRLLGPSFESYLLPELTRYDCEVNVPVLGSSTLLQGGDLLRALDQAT

These are yes or no findings as the source states them, for the method shown. In cells and extracts the contact can be indirect. Some entries that bind do so weakly or less than the wild type.

As for “HIF-1α (endogenous) (from UniProt Q16665-1 1-826)”, the binding entry is reported as “binds”.
On to “HIF-2α (endogenous) (from UniProt Q99814 1-870)”, for which the binding result was “binds”.

(Values after PMC6401139.)
